Patent US8877758B2, “Combinations of medicaments, containing PDE4-inhibitors and EP4-receptor-antagonists” (Boehringer Ingelheim International GmbH, priority 2010, dated 2014)

System: male Wistar rats
Test: Experiment 2: four-day oral treatment of rats, roflumilast-mediated effects with or without SC-560 or Lumiracoxib
Format: in vivo, rat
Conditions: four days
Source text: For pharmacokinetic analysis (determining plasma levels of the substances) one rat from each group was used on day 4; these rats were no longer available for the investigation of other parameters.
The average value±standard deviation in the body weights at time t0 was 306±11 g.

[1] = 2 mg/kg p.o. at 0800 and 1700 hours + 10 mg/kg Roflumilast at 1300 hours

Structure (SMILES): COc1ccc(-n2nc(C(F)(F)F)cc2-c2ccc(Cl)cc2)cc1 [SC-560]
- effect of co-administration on roflumilast-mediated loss of body weight (FIG. 5) [1]: no protective effect
- effect of co-administration on roflumilast-mediated loss of spleen weight (FIG. 6) [1]: no protective effect
- effect of co-administration on roflumilast-mediated mesenteric vasculitis (monocyte/polymorphonuclear perivascular infiltration, FIG. 8) [1]: no protective effect
- effect of co-administration on roflumilast-mediated neutrophilia (FIG. 7) [1]: no protective effect
- parameters measured after administration on its own (body weight, spleen weight, neutrophils, mesenteric vasculitis) (2 mg/kg p.o. at 0800 and 1700 hours, no roflumilast): very similar to the control groups
